Measurements: patent US8791107B2, “N-substituted oxazinopteridines and oxazinopteridinones” (Takeda Pharmaceutical Company Limited, priority 2011, dated 2014)

Sequences of proteins named here, by UniProt entry; tags and fusion partners are left off. A change or cut given only in a name is not applied to a line headed by its entry.
UniProt O00329: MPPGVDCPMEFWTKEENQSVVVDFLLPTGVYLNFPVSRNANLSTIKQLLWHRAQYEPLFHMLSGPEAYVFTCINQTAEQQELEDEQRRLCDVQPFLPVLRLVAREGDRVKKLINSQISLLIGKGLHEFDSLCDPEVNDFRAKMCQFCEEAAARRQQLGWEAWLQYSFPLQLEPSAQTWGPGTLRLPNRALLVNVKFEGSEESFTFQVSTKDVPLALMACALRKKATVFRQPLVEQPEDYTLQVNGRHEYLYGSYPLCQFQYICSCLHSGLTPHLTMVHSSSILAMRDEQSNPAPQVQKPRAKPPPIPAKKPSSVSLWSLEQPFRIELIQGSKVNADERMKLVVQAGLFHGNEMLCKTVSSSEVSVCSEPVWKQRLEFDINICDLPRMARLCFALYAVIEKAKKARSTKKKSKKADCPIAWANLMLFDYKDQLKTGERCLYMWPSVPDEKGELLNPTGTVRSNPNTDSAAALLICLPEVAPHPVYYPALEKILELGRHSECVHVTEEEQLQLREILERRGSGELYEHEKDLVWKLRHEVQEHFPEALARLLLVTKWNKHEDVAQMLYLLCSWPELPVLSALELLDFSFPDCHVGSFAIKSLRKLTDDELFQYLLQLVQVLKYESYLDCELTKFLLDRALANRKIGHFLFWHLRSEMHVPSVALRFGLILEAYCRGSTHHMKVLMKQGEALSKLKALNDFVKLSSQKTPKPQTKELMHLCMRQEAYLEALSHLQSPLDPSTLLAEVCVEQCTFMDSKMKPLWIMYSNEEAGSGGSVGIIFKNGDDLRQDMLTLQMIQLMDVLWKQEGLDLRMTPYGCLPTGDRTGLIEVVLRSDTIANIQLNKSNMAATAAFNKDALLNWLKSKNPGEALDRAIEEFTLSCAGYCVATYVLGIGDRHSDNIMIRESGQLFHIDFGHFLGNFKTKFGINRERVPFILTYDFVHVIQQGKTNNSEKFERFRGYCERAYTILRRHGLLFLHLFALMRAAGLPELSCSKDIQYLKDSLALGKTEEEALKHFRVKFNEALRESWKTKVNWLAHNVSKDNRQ

Biological target: T1, PI3Kδ (Homo sapiens, UniProt O00329)
T1 construct: The protein is full length and co-expressed with untagged PIK3R1; GST; purchased Invitrogen PV5274
Assay: PI3Kδ inhibition, modified PIK3CD Adapta TR-FRET assay
Assay type: biochemical
Settings: recombinant GST-tagged full length PIK3CD co-expressed with PIK3R1 (p85α); 2 μM ATP, 50 μM PIP2; read-out: PI3Kδ Inhibition (pIC50) (converted)
Protocol: The activity of compounds as PI3Kδ inhibitors may be determined by a variety of methods, including in vitro and in vivo methods. The following in vitro assay measures a test compound's ability to inhibit PI3Kδ-mediated phosphorylation of PIP2 and ATP.
Recombinant GST-tagged PIK3CD is purchased from Invitrogen (Part Number: PV5274). The protein is full length and co-expressed with untagged PIK3R1, phosphoinositide-3-kinase regulatory subunit 1 (p85α). The protein is stored at −20° C. in 50 mM TRIS (pH 7.5), 150 mM NaCl, 0.5 mM EDTA, 0.02% Triton® X-100, 2 mM DTT, and 50% glycerol.
A modified PIK3CD Adapta® assay (Invitrogen, Carlsbad, Calif.) is used to measure PI3Kδ inhibition of the example compounds. The assay has two phases. In the first phase, kinase reaction components, which include the enzyme (PIK3CD), substrates (PIP2, ATP), test compound (inhibitor), and assay buffer are added to each well, and the reaction is allowed to incubate for a pre-determined period of time. […] In the presence of the inhibitor, the amount of ADP formed by the kinase reaction is reduced, and the resulting intact antibody-tracer interaction maintains a high TR-FRET signal.
The reaction buffer contains 50 mM Hepes (pH 7.5), 3 mM MgCl2, 1 mM EGTA, 100 mM NaCl, 0.03% CHAPS; 2 mM DTT is added fresh prior to each experiment. […]

IC50: 63.1 nM
Structure (SMILES): N#Cc1cccc(CN2CC3COCCN3c3nc(-c4cccc5[nH]ccc45)ncc32)c1 (stereo not shown) [Example 59, 3-((2-(1H-indol-4-yl)-6a,7,9,10-tetrahydro-[1,4]oxazino[3,4-h]pteridin-5(6H)-yl)methyl)benzonitrile]
